{"source": "patent US20100304462", "assay_in_all_cases": "enzyme reaction in vitro", "key": {"[1]": {"test_system": "T1, DrdIV (Deinococcus radiodurans NEB479)", "T1 sequence (limits assumed)": "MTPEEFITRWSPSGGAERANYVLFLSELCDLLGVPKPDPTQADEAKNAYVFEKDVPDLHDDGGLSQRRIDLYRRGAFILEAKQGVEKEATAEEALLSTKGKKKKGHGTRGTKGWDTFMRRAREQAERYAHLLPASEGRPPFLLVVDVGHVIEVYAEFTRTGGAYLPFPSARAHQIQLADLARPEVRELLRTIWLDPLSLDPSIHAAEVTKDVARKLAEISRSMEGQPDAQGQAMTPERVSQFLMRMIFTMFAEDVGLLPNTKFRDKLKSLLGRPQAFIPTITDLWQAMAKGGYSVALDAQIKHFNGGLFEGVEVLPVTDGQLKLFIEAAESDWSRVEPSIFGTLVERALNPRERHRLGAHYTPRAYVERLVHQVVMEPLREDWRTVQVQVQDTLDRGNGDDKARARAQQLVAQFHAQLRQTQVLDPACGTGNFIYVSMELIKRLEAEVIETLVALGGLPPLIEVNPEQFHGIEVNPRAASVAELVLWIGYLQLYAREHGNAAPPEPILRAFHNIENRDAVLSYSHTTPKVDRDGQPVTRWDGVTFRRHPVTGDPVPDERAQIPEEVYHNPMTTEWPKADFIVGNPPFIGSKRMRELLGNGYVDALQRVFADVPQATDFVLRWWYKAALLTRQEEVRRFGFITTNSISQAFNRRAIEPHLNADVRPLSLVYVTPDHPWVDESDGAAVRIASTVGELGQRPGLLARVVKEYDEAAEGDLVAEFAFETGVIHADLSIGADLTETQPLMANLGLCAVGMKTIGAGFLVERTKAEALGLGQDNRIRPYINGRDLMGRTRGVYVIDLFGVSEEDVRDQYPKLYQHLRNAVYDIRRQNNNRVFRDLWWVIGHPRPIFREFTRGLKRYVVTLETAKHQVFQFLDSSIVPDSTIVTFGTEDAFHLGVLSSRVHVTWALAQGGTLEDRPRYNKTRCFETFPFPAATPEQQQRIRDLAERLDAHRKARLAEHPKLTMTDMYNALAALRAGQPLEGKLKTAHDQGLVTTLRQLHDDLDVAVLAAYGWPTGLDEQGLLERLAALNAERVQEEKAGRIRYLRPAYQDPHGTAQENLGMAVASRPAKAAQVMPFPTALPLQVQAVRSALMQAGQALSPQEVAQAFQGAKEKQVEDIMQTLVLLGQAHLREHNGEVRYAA", "conditions": "elsewhere DrdIV is grouped as recognizing C at position 6; protein in a lysate after overexpression"}, "[2]": {"test_system": "T2, PspOMII (Pseudomonas species OM2164)", "T2 sequence (limits assumed)": "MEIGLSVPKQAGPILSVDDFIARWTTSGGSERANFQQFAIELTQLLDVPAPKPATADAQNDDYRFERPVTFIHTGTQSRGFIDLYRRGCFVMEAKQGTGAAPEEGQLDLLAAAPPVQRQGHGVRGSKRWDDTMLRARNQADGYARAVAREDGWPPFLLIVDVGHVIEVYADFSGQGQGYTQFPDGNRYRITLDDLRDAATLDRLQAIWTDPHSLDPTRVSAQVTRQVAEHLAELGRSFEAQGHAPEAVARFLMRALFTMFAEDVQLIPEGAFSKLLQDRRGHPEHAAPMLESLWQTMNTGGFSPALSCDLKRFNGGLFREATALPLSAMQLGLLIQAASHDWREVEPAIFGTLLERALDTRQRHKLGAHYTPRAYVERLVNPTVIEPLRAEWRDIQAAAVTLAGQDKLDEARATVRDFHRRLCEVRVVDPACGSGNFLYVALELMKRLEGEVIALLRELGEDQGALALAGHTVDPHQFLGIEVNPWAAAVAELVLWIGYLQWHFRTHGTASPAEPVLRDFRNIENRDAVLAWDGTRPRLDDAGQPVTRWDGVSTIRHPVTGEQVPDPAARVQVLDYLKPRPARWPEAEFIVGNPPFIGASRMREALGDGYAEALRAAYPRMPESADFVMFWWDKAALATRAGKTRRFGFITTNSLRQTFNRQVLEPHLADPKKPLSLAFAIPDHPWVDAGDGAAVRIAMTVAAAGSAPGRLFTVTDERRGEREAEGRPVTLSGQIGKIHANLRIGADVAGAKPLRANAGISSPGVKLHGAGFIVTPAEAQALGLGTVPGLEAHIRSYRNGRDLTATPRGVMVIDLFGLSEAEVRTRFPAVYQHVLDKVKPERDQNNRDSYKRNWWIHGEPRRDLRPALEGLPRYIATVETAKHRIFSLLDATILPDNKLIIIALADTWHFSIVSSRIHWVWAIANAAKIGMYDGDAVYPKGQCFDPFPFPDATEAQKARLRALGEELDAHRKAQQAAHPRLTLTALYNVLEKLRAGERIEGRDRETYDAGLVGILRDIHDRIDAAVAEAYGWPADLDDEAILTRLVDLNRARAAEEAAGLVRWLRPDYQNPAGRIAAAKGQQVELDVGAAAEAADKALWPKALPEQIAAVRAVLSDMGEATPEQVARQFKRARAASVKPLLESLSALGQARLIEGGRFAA", "conditions": "elsewhere PspOMII is said to recognize R at position 6; protein in a lysate after overexpression"}, "[3]": {"test_system": "T3, CdpI (Corynebacterium diphtheriae)", "T3 sequence (limits assumed)": "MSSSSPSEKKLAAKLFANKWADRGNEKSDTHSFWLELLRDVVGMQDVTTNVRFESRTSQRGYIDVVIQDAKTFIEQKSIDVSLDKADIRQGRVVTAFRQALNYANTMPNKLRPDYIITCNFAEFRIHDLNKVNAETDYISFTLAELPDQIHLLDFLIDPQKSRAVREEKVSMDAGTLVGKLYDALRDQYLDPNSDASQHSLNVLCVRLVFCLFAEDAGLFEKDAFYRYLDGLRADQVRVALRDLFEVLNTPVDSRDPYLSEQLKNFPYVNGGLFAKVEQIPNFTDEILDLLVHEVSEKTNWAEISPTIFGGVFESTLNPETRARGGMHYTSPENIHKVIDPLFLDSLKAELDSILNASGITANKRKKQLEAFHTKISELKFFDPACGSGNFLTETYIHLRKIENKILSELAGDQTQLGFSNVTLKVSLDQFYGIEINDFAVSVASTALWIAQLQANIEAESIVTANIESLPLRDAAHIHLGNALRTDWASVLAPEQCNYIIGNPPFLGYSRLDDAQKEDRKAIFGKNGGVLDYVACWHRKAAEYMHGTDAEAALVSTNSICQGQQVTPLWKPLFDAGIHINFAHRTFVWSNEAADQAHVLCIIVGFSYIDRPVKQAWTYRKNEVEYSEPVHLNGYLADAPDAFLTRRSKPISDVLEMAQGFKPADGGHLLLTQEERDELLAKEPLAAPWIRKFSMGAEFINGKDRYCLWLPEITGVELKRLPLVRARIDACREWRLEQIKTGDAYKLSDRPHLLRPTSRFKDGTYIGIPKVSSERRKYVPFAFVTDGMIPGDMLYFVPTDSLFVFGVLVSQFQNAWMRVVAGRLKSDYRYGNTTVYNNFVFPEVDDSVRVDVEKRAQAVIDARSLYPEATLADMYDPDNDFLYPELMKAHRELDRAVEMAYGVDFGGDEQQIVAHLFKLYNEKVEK", "conditions": "cuts N20/N18; protein in a lysate after overexpression"}, "[4]": {"test_system": "T4, PlaDI (Parvibaculum lavamentivorans)", "T4 sequence (limits assumed)": "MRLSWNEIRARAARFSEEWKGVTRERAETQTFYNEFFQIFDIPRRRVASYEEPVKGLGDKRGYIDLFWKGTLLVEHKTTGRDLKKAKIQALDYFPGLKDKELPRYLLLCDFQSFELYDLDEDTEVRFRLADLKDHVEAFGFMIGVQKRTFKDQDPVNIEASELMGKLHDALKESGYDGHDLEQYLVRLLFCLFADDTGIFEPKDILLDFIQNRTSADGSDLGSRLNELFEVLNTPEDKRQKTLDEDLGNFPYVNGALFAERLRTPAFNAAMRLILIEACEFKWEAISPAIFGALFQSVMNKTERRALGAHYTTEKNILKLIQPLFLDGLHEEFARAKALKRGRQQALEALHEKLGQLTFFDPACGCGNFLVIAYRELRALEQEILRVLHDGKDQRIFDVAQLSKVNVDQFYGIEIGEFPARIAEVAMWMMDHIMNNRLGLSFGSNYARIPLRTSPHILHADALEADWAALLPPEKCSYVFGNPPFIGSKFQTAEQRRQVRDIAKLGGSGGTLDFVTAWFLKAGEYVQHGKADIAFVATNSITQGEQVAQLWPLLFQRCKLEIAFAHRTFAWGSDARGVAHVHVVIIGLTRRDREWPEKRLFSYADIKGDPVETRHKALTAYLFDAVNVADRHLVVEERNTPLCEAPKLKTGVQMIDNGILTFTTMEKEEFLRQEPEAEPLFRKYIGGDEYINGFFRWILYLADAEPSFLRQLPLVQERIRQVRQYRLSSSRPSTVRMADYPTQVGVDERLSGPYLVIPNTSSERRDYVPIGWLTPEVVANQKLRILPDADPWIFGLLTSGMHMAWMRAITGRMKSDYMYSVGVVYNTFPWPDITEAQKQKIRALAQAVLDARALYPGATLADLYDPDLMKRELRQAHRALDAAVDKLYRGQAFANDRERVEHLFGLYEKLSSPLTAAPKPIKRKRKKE", "conditions": "cuts N20/N18; protein in a lysate after overexpression"}, "GauT27I": {"test_system": "T5, GauT27I", "T5 sequence (limits assumed)": "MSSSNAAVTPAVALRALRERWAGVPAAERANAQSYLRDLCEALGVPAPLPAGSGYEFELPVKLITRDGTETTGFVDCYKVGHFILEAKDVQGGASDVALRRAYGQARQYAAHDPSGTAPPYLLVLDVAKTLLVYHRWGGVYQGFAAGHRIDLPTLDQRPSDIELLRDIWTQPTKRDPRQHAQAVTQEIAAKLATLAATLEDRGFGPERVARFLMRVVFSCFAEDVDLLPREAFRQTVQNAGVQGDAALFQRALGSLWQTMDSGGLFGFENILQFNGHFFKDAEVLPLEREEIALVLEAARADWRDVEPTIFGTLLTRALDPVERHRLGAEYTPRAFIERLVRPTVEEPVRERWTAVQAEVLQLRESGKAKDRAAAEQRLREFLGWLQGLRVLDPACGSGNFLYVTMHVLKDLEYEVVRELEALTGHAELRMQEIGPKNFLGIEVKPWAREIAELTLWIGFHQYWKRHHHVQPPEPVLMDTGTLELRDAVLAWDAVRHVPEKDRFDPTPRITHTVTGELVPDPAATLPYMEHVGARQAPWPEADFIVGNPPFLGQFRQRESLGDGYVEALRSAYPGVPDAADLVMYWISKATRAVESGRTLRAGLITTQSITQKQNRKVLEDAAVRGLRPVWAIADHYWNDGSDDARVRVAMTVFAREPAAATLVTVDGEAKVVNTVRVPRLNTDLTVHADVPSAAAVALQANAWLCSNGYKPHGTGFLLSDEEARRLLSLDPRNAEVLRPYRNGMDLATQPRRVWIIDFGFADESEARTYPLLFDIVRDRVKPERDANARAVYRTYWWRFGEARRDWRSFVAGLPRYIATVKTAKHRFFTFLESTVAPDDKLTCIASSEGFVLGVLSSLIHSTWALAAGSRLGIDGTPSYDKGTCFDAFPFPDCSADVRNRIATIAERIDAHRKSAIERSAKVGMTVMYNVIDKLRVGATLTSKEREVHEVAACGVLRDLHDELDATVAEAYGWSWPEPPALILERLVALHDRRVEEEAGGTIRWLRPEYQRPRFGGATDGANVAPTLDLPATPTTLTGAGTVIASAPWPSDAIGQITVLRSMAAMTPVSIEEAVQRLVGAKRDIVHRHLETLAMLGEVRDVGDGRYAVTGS", "conditions": "cuts 19/17; protein in a lysate after overexpression"}, "[5]": {"test_system": "T6, AquIII (Agmenellum quadruplicatum)", "T6 sequence (limits assumed)": "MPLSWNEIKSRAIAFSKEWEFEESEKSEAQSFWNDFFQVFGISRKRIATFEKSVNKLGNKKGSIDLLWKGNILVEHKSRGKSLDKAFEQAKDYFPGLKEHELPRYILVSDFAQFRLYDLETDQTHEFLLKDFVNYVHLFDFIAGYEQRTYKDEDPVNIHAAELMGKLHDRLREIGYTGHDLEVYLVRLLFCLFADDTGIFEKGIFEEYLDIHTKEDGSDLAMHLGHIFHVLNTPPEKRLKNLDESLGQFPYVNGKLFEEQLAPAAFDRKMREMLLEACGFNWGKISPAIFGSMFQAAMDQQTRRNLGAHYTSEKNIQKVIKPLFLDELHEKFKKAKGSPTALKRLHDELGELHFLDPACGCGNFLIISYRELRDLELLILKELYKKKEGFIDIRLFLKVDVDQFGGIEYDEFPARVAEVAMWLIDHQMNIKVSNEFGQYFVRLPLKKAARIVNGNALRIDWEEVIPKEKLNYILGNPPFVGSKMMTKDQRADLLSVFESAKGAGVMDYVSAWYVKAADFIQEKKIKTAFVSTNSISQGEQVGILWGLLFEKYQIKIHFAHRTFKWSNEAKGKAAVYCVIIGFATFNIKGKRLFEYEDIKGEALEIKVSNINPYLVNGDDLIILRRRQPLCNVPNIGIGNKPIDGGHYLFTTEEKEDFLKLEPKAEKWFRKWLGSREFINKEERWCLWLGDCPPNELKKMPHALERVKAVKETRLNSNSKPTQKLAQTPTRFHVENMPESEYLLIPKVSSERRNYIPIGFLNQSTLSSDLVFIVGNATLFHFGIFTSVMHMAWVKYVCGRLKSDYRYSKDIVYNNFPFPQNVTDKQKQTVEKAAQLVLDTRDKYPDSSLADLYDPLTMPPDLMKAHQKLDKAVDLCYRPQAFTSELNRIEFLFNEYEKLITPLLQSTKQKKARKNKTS", "conditions": "cuts N20/N18; protein in a lysate after overexpression"}}, "note": "Protein sequences can lack the tags named with them."}
{"sequence": "GCGGAG (double strand) [CdpI site]", "values": [{"measurement": "activity on this sequence", "setting": "[1]", "result": "active"}, {"measurement": "activity on this sequence", "setting": "[2]", "result": "active"}, {"measurement": "activity on this sequence", "setting": "[3]", "result": "active"}]}
{"sequence": "CATCAG (double strand) [PlaDI site]", "values": [{"measurement": "activity on this sequence", "setting": "[4]", "result": "active"}]}
{"sequence": "CGCGCAGG (double strand) [GauT27I site]", "values": [{"measurement": "activity on this sequence", "setting": "GauT27I", "result": "active"}]}
{"sequence": "GAGGAG (double strand) [AquIII site]", "values": [{"measurement": "activity on this sequence", "setting": "[5]", "result": "active"}]}
